Like-named read-outs stand apart in the source and are kept apart here. No constants are given. Whether binding was seen depends on the method and setting. In cells and extracts the contact can be indirect. A yes stands for co-enrichment or nearness to the bait. Other partners may have been found.
Tests used:
[1] = target: Myo1-GFP (GFP tagged to the Myo1 C-terminus) (S. cerevisiae) (UniProt P08964); test: affinity purification with mass spectrometry; Myo1-GFP captured from yeast lysate on anti-GFP Miltenyi µbeads; BY4741 as negative control; triplicate; Orbitrap Elite MS/MS, SEQUEST
[2] = target: Myo1-GFP (GFP tagged to the Myo1 C-terminus) (S. cerevisiae) (UniProt P08964); test: as above; remark: listed apart in the source

Protein sequences, listed by entry. Tags and fused reporters are not part of them. Residues count along the entry.
UniProt P08964: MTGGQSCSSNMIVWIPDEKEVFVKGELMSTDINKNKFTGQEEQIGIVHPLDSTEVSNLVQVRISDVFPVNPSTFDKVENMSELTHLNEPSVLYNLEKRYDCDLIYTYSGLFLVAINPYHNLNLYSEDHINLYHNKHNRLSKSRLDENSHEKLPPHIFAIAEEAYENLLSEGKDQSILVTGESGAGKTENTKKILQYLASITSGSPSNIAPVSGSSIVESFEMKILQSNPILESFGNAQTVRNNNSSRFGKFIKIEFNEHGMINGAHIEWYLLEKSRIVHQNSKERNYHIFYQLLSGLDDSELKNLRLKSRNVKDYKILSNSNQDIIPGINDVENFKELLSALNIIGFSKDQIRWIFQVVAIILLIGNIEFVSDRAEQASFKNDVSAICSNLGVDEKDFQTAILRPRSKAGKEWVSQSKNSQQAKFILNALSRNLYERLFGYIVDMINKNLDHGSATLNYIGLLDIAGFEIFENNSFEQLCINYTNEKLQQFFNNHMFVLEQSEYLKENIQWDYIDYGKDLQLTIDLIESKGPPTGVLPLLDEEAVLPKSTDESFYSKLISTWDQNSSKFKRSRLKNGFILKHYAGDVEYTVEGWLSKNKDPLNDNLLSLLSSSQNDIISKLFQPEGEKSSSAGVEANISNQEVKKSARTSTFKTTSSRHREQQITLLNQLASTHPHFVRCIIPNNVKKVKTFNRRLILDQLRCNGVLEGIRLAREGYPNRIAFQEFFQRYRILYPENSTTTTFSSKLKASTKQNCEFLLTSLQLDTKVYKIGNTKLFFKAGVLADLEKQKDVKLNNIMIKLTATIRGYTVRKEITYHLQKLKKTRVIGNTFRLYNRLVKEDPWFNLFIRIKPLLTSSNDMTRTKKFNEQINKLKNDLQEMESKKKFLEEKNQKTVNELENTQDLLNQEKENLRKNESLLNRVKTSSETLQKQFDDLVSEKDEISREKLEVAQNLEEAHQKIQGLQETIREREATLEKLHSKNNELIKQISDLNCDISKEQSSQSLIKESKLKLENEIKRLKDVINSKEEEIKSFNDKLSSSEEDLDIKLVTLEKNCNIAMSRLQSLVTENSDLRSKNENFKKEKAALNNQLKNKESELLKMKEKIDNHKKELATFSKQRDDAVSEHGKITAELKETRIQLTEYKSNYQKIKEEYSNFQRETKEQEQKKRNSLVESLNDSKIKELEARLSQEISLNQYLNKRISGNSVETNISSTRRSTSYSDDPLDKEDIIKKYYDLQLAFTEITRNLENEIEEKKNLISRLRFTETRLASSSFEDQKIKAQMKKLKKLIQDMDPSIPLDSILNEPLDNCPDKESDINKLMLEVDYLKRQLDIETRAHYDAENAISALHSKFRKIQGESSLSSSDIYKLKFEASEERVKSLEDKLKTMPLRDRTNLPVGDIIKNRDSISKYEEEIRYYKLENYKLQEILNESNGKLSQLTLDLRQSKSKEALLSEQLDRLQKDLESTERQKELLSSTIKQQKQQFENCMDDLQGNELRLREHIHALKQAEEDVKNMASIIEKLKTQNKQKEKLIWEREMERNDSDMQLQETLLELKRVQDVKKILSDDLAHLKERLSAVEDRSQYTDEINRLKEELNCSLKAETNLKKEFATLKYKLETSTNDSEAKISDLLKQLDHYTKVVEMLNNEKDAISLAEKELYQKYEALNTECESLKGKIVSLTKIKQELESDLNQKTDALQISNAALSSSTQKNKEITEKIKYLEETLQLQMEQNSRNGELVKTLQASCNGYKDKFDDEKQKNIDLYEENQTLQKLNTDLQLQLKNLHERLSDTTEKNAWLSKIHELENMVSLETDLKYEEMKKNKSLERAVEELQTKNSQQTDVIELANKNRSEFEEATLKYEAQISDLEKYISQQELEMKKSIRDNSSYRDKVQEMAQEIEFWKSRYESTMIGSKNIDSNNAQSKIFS
UniProt P16474, residues 43-682: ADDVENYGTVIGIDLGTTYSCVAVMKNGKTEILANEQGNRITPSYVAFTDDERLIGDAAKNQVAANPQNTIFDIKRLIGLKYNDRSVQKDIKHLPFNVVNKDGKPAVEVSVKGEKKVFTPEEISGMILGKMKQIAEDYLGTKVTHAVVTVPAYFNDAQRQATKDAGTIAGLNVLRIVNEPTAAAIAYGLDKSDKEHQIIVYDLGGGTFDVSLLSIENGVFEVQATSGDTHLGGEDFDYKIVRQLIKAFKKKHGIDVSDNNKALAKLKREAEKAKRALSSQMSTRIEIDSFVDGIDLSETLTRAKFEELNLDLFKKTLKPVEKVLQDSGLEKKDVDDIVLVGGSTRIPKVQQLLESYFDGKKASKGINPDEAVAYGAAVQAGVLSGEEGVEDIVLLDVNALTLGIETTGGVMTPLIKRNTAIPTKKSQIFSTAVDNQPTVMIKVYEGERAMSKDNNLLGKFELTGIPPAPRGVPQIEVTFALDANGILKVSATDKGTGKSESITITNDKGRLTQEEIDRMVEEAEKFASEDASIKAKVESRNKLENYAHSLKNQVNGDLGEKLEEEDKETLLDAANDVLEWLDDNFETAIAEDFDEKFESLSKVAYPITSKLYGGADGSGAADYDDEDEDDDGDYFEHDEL

| binding [1] | binding [2] | Molecule |
| --- | --- | --- |
| binds | – | Act1p, endogenous (from UniProt P60010 1-375) |
| binds | – | Kar2p, endogenous (from UniProt P16474 43-682) |
| – | binds | Bni5p, endogenous (protein, UniProt P53890 1-448) MGLDQDKIKKRLSQIEIDINQMNQMIDENLQLVEPAEDEAVEDNVKDTGVVDAVKVAETALFSGNDGADSNPGDSAQVEEHKTAQVHIPTENEANKSTDDPSQLSVTQPFIAKEQITHTAIAIGDSYNSFVANSAGNEKAKDSCTENKEDGTVNIDQNRGEADVEIIENNDDEWEDEKSDVEEGRVDKGTEENSEIESFKSPMPQNNTLGGENKLDAELVLDKFSSANKDLDIQPQTIVVGGDNEYNHESSRLADQTPHDDNSENCPNRSGGSTPLDSQTKIFIPKKNSKEDGTNINHFNSDGDGQKKMANFETRRPTNPFRVISVSSNSNSRNGSRKSSLNKYDSPVSSPITSASELGSIAKLEKRHDYLSMKCIKLQKEIDYLNKMNAQGSLSMEDGKRLHRAVVKLQEYLDKKTKEKYEVGVLLSRHLRKQIDRGENGQFWIGTK |
| – | binds | Abp1p, endogenous (protein, UniProt P15891 1-592) MALEPIDYTTHSREIDAEYLKIVRGSDPDTTWLIISPNAKKEYEPESTGSSFHDFLQLFDETKVQYGLARVSPPGSDVEKIIIIGWCPDSAPLKTRASFAANFAAVANNLFKGYHVQVTARDEDDLDENELLMKISNAAGARYSIQTSSKQQGKASTPPVKKSFTPSKSPAPVSKKEPVKTPSPAPAAKISSRVNDNNDDDDWNEPELKERDFDQAPLKPNQSSYKPIGKIDLQKVIAEEKAKEDPRLVQKPTAAGSKIDPSSDIANLKNESKLKRDSEFNSFLGTTKPPSMTESSLKNDDDKVIKGFRNEKSPAQLWAERKAKQNSGNAETKAEAPKPEVPEDEPEGEPDVKDLKSKFEGLAASEKEEEEMENKFAPPPKKSEPTIISPKPFSKPQEPVKAEEAEQPKTDYKKIGNPLPGMHIEADNEEEPEENDDDWDDDEDEAAQPPLPSRNVASGAPVQKEEPEQEEIAPSLPSRNSIPAPKQEEAPEQAPEEEIEEEAEEAAPQLPSRSSAAPPPPPRRATPEKKPKENPWATAEYDYDAAEDNELTFVENDKIINIEFVDDDWWLGELEKDGSKGLFPSNYVSLGN |
| – | binds | Mlc1p, endogenous (protein, UniProt P53141 1-149) MSATRANKDIFTLFDKKGQGAIAKDSLGDYLRAIGYNPTNQLVQDIINADSSLRDASSLTLDQITGLIEVNEKELDATTKAKTEDFVKAFQVFDKESTGKVSVGDLRYMLTGLGEKLTDAEVDELLKGVEVDSNGEIDYKKFIEDVLRQ |

Reference: article PMC4856097
